The text below walks through data of patent EP1826280A2 (priority 1992, dated 1994).

The test system of the assay is vascular smooth muscle cells. Nature of the assay: 24 hour 3H-leucine protein inhibition and 3H-thymidine DNA synthesis inhibition assays. Particulars: 24 hour exposure; in the presence of 5% FBS. The format is cell-based. The procedure:
The ability of various therapeutic agents to inhibit DNA synthesis and protein synthesis in vascular smooth muscle cells was tested. ^3H-leucine and ^3H-thymidine uptake and cytotoxicity assays were conducted in accordance with the following protocols.
^3H-leucine uptake: Vascular smooth muscle cells at 40,000 cells/ml were seeded in sterile 24 well plates at 1ml/well. The plates were incubated overnight at 37°C, 5% CO2, 95% air in a humidified atmosphere (saturation). Log dilutions of the therapeutic agent of interest were incubated with the vascular smooth muscle cells for 5 minutes or 24 hours. […] Vials were counted on a Beckman LS2600 Liquid scintillation Counter interfaced with Beckman "Data Capture" software for conversion to a Lotus 1-2-3® file and analysis using Lotus 1-2-3®.
^3H-thymidine uptake: Vascular smooth muscle cells were incubated in complete media with 5% FBS (Gibco) overnight at 37°C in a humidified, 5% CO2 environment in sterile 24 well plates. […] The cells were visually scored for viability and cell number. […] Vials were counted on a Beckman LS2800 Liquid Scintillation counter interfaced with Beckman "Data Capture" software for conversion to a Lotus 1-2-3® file and analysis using Lotus 1-2-3®.

On to `CN[C@@H]1C[C@H]2O[C@@](C)([C@@H]1OC)n1c3ccccc3c3c4c(c5c6ccccc6n2c5c31)C(=O)NC4` [staurosporin], for which the “inhibition of DNA synthesis compared with protein synthesis” value is on record as “to a greater extent than they inhibited protein synthesis”.
